The nature of the assay: qHTS Assay to Find Inhibitors of Chronic Active B-Cell Receptor Signaling. Conditions: ABC-DLBCL IkBa-CBG/CBR reporter, luminescence ratio (green luciferase fused to IkBa over red control in TMD8 lymphoma cells), 4 h. The gist of the method:
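TMD8 human ABC-DLBCL cells with doxycycline-inducible IκBα–green luciferase fusion and unfused red luciferase, in 0.5% FBS medium; compounds up to 46 uM, 4 h at 37C. Green/red luminescence ratio, filter-overlap corrected, fitted to concentration-response curves.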
In general terms: qHTS replaces the single test concentration by a dilution series.

The mark [1] stands for this setting: measured here: CBR red luminescence, cell number.

Some of the results follow. These are further read-outs of the screen, such as a control signal, another cell line or another target. No call is given for them. The list favours compounds with an active or inconclusive main result. Words in brackets tell the shape of the fitted curve; partial curves, single points and poor fits give uncertain potencies.

As usually defined, the AC50 is the concentration at which the activity in the assay is half-maximal. For the molecule `COc1ccc(/C(N)=N/OC(=O)c2cccs2)cc1`, the half-maximal activity concentration (AC50) under setting [1] was 35.5 µM [falling, single point].
Same read-out and setting: under `Nc1nnc(-c2ccccc2[N+](=O)[O-])o1` stands 11.2 µM [falling, partial curve]; under `COc1ccc(C(CC(=O)Nc2ccc(C)cn2)N2Cc3ccccc3C2=O)cc1` (stereo not given), 5.62 µM [rising, single point]; under `COc1ccc2oc(C)c(C(=O)c3ccc(C)cc3)c2c1`, 11.2 µM [rising, single point].
Still for that read-out and setting: under `ClCc1csc(-c2ccc(Cl)cc2)n1` stands 9.2 µM [rising, partial curve, poor fit]; under `CC1CCCN(S(=O)(=O)c2ccc(NC(=O)CN3CCN(C)CC3)cc2)C1` (stereo not given), 35.5 µM [falling, partial curve, poor fit]; under `CCOC(=O)Cc1csc(NC(=O)c2cc3ccccc3o2)n1`, 5.01 µM [falling, partial curve].
Turning to `Oc1c(C(c2ccc(Cl)cc2)N2CCCC2)cc(Cl)c2cccnc12` (stereo not given), under setting [1], the concentration at half-maximal activity (AC50) is 35.5 µM [falling, single point].
Same read-out and setting: the same measure for `COc1cc(OC)c(C2SCCS2)c(OC)c1`: 18.4 µM [rising, single point].
For the molecule `CCN(c1ccccc1)S(=O)(=O)c1ccc(C(=O)NC2CCN(Cc3ccccc3)CC2)cc1`, the half-maximal activity concentration (AC50) is 29.1 µM [rising, single point] under setting [1] and 18.4 µM [falling, partial curve] (measured here: IkBa-CBG green luminescence).
With `CCN(CC)c1nc(=S)nc(NC(C)(C)C)[nH]1`, the AC50 under setting [1] was 14.1 µM [rising, single point].
Same read-out and setting: the same measure for `COc1cccc(-c2nnc(-c3ccco3)o2)c1`: 29.1 µM [falling, single point].
Same read-out and setting: under `Nc1nc(NCc2ccc(Cl)cc2)nc(NCCO)c1[N+](=O)[O-]` stands 2.82 µM [rising, partial curve, poor fit]; under `COc1cccc(-c2[nH]nc3c2C(c2ccc(C)o2)C(C#N)=C(N)O3)c1` (stereo not given), 4.47 µM [falling, full curve]; under `CCOc1ccc(Br)cc1C(=O)N/N=C/c1cccnc1`, 35.5 µM [falling, single point].
Take `C=CCn1c(SCc2c(C)noc2C)nc2sc(C)c(C)c2c1=O`: the AC50 under setting [1] is 18.4 µM [rising, single point].
Still for that read-out and setting: the same measure for `O=C1C(C=NC2CC2)=C(O)c2ccccc21`: 29.1 µM [falling, single point].
The same measure, in the same setting: under `Clc1ccc(C#Cc2cccnc2)cc1` stands 20.6 µM [rising, single point]; under `O=C(COC(=O)c1ccc(F)c(S(=O)(=O)N2CCOCC2)c1)Nc1ccc2[nH]c(=O)[nH]c2c1`, 4.61 µM [rising, partial curve, poor fit].

Source of the values: PubChem BioAssay AID493014 (National Center for Advancing Translational Sciences (NCATS), 2011).
